Some of the results follow. Shown are side measurements of this screen, not its main read-out; they come without a call. Most of these compounds were active or inconclusive in the main read-out, so they are no random draw. Potencies come from curve fits of mixed quality, noted in brackets.
Assay: Cell signaling CRE-BLA (Fsk stim)
Details: CHO CRE-bla reporter (cAMP response element driving beta-lactamase), forskolin EC10, beta-lactamase ratio; measured here: 460 nm blue channel
In short: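 AC50 values, positive or negative, reflect shifts in EC10 NKH 477-induced CRE-bla reporter activity in CHO cells. Incubation lasted 3 h at 37 °C before CCF4 substrate (2 h, room temperature) and ratiometric 460/530 nm reading.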

Row | SMILES | AC50
1 | COc1ccc(-c2cc(C(F)(F)F)nc(SCC(=O)Nc3cc(C)on3)n2)cc1OC | 1.26 µM [rising, full curve]
2 | C=C(C)Cn1c(SCCCO)nc2c1c(=O)[nH]c(=O)n2C | 15.8 µM [rising, single point]
3 | N#Cc1ccccc1Cn1c(=O)n(CCCC(=O)NCc2ccc3c(c2)OCO3)c(=O)c2ccccc21 | 0.316 µM [falling, partial curve]
4 | COCCn1c(N2CCN(c3ccc(OC)cc3)CC2)nc2c1c(=O)[nH]c(=O)n2C | 12.6 µM [falling, partial curve]
5 | Cc1cnc(NC(=O)CSc2nc3ccccc3c(=O)[nH]2)s1 | 10 µM [rising, partial curve]
6 | O=C(Cc1coc2cc3c(cc12)CCC3)OCc1cc(=O)n2c(n1)sc1ccccc12 | 15.8 µM [rising, single point]
7 | O=c1cnc2cnc(Oc3cccc(Cl)c3)nc2n1CCc1ccccc1 | 15.8 µM [rising, partial curve]
8 | CC(C)c1cc(Nc2cccc(O)c2)cc(C(C)C)c1O | 12.6 µM [falling, partial curve]
9 | C=CCn1c(SCC2=C(C(=O)OCC)C(C)NC(=O)N2)nnc1C1CCCCC1 (centres undefined) | 0.251 µM [falling, partial curve]
10 | CCOc1ncccc1C(=O)OCc1nnc(-c2ccccc2)o1 | 3.16 µM [rising, single point]
11 | CC(=O)c1ccc(NC(=O)CSc2nc3nc(C)cc(C)n3n2)cc1 | 10 µM [rising, partial curve]
12 | CCOCCCN(C(=O)CNC(=O)c1ccco1)C(C(=O)NC1CCCC1)c1ccccc1C (centres undefined) | 0.1 µM [falling, full curve]
13 | CC1N=C2c3ccccc3N=C(SCc3cc(=O)n4ccccc4n3)N2C1=O (centres undefined) | 0.794 µM [rising, full curve]
14 | O=C(COC(=O)CCCc1c[nH]c2ccccc12)Nc1ccc2c(c1)OCO2 | 5.01 µM [falling, single point]
15 | O=C(O)C1CC=CCC1C(=O)Nc1ccc(F)c(F)c1 (centres undefined) | 3.16 µM [falling, single point]
16 | CC(C)Cn1nc(NC(=O)C2CCCO2)c2cc3ccccc3nc21 (centres undefined) | 12.6 µM [rising, partial curve]
17 | OC1(CN2CCOCC2)C2CN3CCN(C2)CC1(c1ccccc1)C3 (centres undefined) | 0.794 µM [falling, full curve]
18 | N#CC1=C(N)Oc2cc(N)ccc2C1C1CC=CCC1 (centres undefined) | 25.1 µM [rising, single point]
19 | CC(=O)Nn1cc2c(=O)n(C)c(=O)n(C)c2c1 | 10 µM [falling, partial curve, poor fit]

Exported with tabs: part of the list above.
Row	SMILES	AC50
9	C=CCn1c(SCC2=C(C(=O)OCC)C(C)NC(=O)N2)nnc1C1CCCCC1 (centres undefined)	0.251 µM [falling, partial curve]
15	O=C(O)C1CC=CCC1C(=O)Nc1ccc(F)c(F)c1 (centres undefined)	3.16 µM [falling, single point]
